The values that follow come from PubChem BioAssay AID2685 (National Center for Advancing Translational Sciences (NCATS), 2010).

A short description of the assay: qHTS Assay for Lipid Storage Modulators in Drosophila S3 Cells.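 On cell number change: cells counted by Cell Tracker Red CMTPX staining in the red channel.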 To be noted: BODIPY lipid droplet fluorescence, 18-24 h; for cell number change: measured here: cell count max response, cells fed with added oleic acid. The gist of the method: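 Drosophila S3 cells got compounds at several concentrations plus oleic acid (400 uM solution). Laser-scanning cytometry with 488 nm excitation read lipid droplets at 500-530 nm and cells at 575-640 nm. Percent activity was relative to 20 uM Triacsin C.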

Where [1] appears, read: measured here: cell number channel AC50, cells fed with added oleic acid.
Setting [2] is: measured here: lipid fluorescence (Fed channel) AC50, cells fed with added oleic acid.

Molecules are shown by their SMILES. This is one part of the list. Shown are side measurements of this screen, not its main read-out; they come without a call. Most of these compounds were active or inconclusive in the main read-out, so they are no random draw. The note in brackets gives the kind of curve behind each potency; many fits are weak.

Take `Nc1nc(CN2CCN(c3ccccn3)CC2)nc(Nc2ccc(F)cc2)n1`: the cell number change came out at 19.6%.

`O=C(Nc1ccc(N2CCOCC2)cc1)C1(c2ccc(Cl)cc2)CCC1`: the AC50 reads like this: under setting [1], 3.66 µM [rising, partial curve, poor fit]; under setting [2], 5.8 µM [rising, partial curve, poor fit].

As to `Cc1cc(OCCCC(=O)Nc2cccc(-n3cnnn3)c2)ccc1Cl`, under setting [2], the AC50 was 5.17 µM [falling, single point].

As for `CCN(c1ccccc1)S(=O)(=O)c1ccc(F)cc1C`, the cell number change is -74.1%. For the same compound, the concentration at half-maximal activity (AC50) under setting [1] is 10.3 µM [falling, partial curve]. Further, the AC50 under setting [2] is 6.51 µM [falling, single point].

As for `COC(=O)CNC(=O)COC(=O)/C=C/c1ccccc1[N+](=O)[O-]`, under setting [1], the AC50 is 0.651 µM [falling, single point].

For `Cc1ccc2c(c1)c1c(n2CC(O)CNC(C)(C)C)CCCC1` (stereo not given), the cell number change stood at 16.1%.

With `CCC(C)Nc1nc(N)c([N+](=O)[O-])c(N2CCCCCC2)n1` (stereo not given), the cell number change is -25.3%. For the same compound, the AC50 under setting [2] was 29.1 µM [falling, single point].

For `COCCn1c(SCC(=O)NC(=O)NC(C)C)nc2ccccc21`, the cell number change is -21.9%. The AC50 under setting [1] is 0.164 µM [falling, full curve, poor fit].

Regarding `CCCn1c(N2CCN(S(=O)(=O)Cc3ccccc3)CC2)nc2ccccc21`, the cell number change was found to be 31.9%. Moreover, the half-maximal activity concentration (AC50) under setting [1] is 0.731 µM [rising, partial curve].

Consider `Cc1cc(C(F)(F)F)nc(SCC(=O)Nc2nccs2)n1`, for which the cell number change is 16.6%. The half-maximal activity concentration (AC50) under setting [2] is 0.184 µM [rising, full curve, poor fit].

Regarding `NC(=O)c1c(NC(=O)CSc2nnc(-c3ccco3)n2-c2ccccc2)sc2c1CCC2`, the concentration at half-maximal activity (AC50) is, setting by setting: under setting [1], 0.461 µM [rising, single point]; under setting [2], 9.2 µM [rising, partial curve].

For the compound `Cc1cccc2cc(CN(CC3CCCO3)S(=O)(=O)c3ccccc3)c(=O)[nH]c12` (stereo not given), the cell number change came out at 15.6%. The concentration at half-maximal activity (AC50) under setting [2] is 29.1 µM [rising, single point].

With `CC1CCCC(NC(=O)CSc2nnc(C(F)(F)F)n2C)C1C` (stereo not given), the cell number change worked out at 0.645%. Moreover, under setting [2], the concentration at half-maximal activity (AC50) was 4.11 µM [rising, single point].

For `CCOc1ccccc1N1CCN(c2nc(N)c(C#N)c(CC#N)c2C#N)CC1`, the concentration at half-maximal activity (AC50) under setting [1] was 0.259 µM [rising, full curve] and the half-maximal activity concentration (AC50) under setting [2] is 0.82 µM [rising, full curve].

`O=C(/C=C/Nc1ccccc1Br)c1ccccn1`: the cell number change was -31.6%. Also, the half-maximal activity concentration (AC50) under setting [1] was 4.11 µM [falling, full curve, poor fit].

For the compound `O=C(NCCN1CCCCC1)c1ccc(Oc2cc(Cl)cc(Cl)c2)o1`, the cell number change was -32.7%. For the same compound, the concentration at half-maximal activity (AC50) under setting [1] was 18.4 µM [falling, partial curve, poor fit]. Also, the half-maximal activity concentration (AC50) under setting [2] was 16.4 µM [falling, partial curve].
